Test results taken from publication PMC7434933.
Results are given in words; binding and its absence hold for the method and conditions named. Some entries that bind do so weakly or less than the wild type.

Assays:
[1] = biological target: T1, ARF19 (Arabidopsis thaliana) (UniProt Q8RYC8); assay: two-hybrid; IAA15 in pGAD424 (AD), ARF7 or ARF19 in pAS2-1 (BD), co-transformed into yeast strain pJ69-4A; growth at 30°C; HIS3 reporter on SD -Leu/-Trp/-His with 25 mM 3-AT
T1 sequence: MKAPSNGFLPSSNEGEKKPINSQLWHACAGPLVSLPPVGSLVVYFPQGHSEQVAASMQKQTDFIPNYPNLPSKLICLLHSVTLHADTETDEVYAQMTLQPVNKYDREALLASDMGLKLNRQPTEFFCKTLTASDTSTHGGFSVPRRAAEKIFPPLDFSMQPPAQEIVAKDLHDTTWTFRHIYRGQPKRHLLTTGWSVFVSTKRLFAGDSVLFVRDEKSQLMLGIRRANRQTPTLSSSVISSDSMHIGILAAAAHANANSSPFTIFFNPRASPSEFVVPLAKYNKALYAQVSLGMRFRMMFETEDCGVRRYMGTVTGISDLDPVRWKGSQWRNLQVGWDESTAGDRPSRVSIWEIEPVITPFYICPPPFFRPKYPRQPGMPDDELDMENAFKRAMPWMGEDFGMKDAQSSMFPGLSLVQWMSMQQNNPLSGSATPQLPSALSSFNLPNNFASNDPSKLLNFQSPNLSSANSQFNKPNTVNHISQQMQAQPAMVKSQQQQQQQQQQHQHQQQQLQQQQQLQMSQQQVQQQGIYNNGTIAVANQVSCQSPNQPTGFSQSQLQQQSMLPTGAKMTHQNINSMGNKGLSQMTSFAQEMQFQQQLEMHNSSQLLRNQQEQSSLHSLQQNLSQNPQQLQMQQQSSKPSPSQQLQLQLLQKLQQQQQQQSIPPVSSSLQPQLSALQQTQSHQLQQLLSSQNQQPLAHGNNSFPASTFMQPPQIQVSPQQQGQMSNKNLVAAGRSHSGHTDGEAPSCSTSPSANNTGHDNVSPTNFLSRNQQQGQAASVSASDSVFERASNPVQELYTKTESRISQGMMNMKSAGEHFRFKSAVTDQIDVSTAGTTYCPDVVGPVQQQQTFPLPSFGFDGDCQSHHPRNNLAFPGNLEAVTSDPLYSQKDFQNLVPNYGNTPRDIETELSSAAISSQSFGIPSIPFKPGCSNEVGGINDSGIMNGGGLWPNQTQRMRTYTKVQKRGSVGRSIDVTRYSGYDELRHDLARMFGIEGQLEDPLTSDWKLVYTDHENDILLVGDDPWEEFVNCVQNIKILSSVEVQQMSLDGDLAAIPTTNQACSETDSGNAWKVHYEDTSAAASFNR

[2] = biological target: T2, ARF7 (Arabidopsis thaliana) (UniProt P93022); assay: as above
T2 sequence: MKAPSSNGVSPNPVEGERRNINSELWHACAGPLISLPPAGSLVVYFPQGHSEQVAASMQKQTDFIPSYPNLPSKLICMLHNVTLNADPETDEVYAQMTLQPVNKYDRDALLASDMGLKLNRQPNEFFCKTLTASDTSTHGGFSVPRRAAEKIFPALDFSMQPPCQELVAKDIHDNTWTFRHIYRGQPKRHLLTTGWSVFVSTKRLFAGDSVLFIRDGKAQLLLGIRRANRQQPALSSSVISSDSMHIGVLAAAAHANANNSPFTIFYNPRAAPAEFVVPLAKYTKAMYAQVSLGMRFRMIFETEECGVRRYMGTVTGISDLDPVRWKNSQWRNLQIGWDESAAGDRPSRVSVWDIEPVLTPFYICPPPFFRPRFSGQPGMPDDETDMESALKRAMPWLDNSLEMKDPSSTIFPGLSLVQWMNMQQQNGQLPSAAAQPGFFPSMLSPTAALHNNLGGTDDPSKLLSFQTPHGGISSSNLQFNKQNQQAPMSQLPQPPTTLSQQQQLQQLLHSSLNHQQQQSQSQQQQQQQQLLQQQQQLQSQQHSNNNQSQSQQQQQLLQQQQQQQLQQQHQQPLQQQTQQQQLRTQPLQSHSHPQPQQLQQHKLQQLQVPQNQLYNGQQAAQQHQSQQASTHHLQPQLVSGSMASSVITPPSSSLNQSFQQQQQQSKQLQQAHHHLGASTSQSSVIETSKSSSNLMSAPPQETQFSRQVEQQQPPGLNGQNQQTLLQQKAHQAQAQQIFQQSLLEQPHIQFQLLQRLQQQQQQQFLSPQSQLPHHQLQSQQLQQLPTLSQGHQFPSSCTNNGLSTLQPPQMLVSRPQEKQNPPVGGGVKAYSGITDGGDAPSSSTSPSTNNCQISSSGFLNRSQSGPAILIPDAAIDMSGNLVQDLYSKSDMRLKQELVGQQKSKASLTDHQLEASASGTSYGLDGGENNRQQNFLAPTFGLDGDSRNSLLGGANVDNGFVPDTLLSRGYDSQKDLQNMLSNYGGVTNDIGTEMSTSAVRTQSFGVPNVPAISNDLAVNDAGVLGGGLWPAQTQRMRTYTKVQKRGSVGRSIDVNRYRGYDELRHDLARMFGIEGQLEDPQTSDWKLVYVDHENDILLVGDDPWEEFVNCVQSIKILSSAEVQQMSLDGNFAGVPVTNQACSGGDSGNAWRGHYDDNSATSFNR

B1: IAA15 (protein, UniProt Q9C966 1-179)
chain: MSPEEYVRVWPDSGDLGGTELTLALPGTPTNASEGPKKFGNKRRFLETVDLKLGEAHENNYISSMVTNDQLVGWPPVATARKTVRRKYVKVALDGAAYLRKVDLGMYDCYGQLFTALENMFQGIITICRVTELERKGEFVATYEDKDGDLMLVGDVPWMMFVESCKRMRLMKTGDAIGL
For B1, the binding [1] was “binds” and the binding [2] was “binds”.
